# No constants are given. Whether binding was seen depends on the method and setting. Binding seen in cells or lysates may run through a third protein. A yes stands for co-enrichment or nearness to the bait. Other partners may have been found.
# By UniProt entry, the sequences of proteins in these tests, tags left out.
# UniProt P62814: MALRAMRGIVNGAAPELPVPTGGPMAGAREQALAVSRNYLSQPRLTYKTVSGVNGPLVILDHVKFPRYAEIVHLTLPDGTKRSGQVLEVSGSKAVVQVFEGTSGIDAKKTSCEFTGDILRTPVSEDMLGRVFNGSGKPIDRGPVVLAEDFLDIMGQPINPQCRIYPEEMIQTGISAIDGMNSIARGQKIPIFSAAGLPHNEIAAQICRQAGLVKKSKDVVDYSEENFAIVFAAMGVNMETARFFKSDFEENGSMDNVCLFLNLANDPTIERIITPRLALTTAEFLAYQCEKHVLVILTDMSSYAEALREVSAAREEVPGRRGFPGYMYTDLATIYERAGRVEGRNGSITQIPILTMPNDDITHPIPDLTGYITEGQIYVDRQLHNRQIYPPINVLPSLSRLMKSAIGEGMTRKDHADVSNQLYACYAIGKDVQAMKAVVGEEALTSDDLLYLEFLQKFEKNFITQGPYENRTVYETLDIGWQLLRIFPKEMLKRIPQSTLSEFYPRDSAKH
# UniProt Q6PNC0: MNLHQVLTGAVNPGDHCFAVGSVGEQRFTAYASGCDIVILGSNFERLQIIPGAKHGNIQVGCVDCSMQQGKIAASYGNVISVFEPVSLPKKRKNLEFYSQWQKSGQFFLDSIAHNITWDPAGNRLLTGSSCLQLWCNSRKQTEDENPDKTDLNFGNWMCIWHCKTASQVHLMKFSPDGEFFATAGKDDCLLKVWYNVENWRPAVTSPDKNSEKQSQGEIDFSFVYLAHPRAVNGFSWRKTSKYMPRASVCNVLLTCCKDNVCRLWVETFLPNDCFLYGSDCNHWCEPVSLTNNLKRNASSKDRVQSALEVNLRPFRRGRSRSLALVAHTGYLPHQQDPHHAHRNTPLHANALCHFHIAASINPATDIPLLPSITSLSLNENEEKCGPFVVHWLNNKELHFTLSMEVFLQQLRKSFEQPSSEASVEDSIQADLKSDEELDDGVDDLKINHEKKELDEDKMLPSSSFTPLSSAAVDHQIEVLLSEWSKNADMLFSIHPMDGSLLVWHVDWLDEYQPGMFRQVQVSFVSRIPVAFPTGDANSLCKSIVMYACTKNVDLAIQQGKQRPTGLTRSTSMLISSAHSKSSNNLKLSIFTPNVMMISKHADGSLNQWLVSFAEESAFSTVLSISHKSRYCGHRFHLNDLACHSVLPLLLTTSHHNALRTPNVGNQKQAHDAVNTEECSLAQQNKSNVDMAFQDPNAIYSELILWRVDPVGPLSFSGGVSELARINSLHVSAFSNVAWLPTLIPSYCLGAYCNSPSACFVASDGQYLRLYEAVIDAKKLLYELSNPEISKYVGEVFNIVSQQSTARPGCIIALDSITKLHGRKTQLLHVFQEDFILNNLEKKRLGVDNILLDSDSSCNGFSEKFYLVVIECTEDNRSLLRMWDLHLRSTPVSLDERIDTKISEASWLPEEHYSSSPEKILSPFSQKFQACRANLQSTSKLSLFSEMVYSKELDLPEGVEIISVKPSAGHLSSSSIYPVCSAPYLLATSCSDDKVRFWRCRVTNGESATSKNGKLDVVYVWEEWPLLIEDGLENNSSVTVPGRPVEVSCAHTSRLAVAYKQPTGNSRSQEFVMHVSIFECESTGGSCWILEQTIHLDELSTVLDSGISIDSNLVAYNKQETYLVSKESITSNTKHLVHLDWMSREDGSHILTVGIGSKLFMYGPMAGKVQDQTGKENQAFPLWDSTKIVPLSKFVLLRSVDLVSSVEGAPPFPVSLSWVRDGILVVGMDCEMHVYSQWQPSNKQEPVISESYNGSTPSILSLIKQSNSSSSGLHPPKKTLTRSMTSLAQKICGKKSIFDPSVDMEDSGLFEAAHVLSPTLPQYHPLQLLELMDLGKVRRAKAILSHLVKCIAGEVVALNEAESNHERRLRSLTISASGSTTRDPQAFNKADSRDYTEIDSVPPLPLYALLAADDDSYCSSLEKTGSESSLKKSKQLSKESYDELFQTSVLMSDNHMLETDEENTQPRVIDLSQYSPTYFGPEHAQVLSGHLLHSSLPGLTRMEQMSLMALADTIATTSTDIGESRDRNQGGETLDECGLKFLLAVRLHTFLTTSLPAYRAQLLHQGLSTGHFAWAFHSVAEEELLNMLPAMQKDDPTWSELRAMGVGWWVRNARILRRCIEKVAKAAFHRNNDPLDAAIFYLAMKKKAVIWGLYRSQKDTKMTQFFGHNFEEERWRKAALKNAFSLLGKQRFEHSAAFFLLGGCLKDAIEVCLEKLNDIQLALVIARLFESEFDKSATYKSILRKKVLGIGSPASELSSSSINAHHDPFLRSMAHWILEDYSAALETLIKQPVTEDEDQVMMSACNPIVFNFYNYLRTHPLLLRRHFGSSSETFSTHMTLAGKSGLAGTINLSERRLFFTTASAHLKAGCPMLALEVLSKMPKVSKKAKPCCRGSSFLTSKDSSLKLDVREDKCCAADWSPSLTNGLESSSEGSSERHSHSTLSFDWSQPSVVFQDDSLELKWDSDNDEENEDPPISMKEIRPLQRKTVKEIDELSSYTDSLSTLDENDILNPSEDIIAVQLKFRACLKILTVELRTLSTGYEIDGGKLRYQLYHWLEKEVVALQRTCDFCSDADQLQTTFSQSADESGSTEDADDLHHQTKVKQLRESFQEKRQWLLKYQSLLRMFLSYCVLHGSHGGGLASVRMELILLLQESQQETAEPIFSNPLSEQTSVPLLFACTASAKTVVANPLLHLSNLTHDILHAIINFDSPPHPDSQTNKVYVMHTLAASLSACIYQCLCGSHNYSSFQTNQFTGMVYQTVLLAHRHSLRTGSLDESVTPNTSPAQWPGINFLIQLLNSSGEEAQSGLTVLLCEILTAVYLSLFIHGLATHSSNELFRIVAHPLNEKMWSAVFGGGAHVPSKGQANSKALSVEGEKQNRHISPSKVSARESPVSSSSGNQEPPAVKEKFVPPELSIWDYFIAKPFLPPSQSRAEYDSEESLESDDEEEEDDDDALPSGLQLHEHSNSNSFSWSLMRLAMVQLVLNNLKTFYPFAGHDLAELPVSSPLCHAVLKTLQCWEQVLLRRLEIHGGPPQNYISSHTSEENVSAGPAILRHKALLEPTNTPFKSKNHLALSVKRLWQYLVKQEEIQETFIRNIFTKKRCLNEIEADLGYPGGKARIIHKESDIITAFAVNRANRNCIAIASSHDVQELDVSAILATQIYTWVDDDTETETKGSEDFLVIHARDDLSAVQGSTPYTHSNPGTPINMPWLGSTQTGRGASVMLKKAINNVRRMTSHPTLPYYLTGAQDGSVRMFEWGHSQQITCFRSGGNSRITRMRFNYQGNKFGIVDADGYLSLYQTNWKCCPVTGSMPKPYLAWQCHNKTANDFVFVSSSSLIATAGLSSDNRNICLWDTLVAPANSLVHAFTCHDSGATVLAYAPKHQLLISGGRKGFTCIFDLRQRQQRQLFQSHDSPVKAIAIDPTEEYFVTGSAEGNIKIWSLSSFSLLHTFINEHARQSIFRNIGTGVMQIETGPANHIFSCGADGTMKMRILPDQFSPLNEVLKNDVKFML
# UniProt Q3TDK6: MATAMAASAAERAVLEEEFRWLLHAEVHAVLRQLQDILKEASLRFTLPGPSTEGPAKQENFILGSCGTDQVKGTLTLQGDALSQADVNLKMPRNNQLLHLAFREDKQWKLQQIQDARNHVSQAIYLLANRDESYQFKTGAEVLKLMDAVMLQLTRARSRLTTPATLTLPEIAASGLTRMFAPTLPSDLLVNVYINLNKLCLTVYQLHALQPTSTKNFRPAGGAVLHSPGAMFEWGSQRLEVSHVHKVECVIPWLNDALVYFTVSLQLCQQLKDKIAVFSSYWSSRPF
# UniProt Q920I9: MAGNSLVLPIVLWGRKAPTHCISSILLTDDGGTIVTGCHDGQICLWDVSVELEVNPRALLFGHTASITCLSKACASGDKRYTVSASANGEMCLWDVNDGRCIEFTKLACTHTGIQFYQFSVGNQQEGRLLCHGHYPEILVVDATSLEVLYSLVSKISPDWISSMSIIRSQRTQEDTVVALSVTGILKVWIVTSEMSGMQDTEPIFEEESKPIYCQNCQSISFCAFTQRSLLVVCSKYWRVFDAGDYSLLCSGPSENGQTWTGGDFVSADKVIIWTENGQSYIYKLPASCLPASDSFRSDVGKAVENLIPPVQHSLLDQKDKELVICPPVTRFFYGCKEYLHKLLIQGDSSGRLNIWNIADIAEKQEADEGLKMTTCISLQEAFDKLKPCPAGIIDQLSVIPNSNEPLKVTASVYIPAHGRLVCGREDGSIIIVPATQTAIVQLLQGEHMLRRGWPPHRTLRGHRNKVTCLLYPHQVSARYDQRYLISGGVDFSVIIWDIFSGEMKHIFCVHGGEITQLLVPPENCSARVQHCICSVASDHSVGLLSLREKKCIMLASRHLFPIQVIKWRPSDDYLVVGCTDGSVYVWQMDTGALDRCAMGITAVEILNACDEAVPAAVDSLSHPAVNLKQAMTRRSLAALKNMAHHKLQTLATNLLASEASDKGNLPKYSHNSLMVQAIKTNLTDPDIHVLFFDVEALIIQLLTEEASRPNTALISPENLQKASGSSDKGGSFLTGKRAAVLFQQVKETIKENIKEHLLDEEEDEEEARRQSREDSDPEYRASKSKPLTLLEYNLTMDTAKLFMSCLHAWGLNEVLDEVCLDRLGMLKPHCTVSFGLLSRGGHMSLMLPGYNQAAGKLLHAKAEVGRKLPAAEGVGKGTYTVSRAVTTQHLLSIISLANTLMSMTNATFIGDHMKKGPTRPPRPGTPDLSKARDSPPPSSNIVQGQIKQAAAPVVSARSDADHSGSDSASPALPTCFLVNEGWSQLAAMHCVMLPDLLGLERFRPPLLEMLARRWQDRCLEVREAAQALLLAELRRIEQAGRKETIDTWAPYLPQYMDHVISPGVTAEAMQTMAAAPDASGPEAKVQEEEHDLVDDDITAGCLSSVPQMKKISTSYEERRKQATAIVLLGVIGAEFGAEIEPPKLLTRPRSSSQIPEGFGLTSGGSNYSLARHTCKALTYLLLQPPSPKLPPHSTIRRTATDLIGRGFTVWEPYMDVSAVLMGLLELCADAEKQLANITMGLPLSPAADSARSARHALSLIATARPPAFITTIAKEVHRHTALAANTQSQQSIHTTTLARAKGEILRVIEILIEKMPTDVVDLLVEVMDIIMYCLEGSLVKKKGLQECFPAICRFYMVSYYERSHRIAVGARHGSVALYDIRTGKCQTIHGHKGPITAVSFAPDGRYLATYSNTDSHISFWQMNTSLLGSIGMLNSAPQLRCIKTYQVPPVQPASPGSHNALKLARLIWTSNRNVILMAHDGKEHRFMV
# Target: HA-V1b2 (mouse) (UniProt P62814)
# Experiment: affinity purification with mass spectrometry
row,binding,Substance
1,binds,Dmxl1 (from UniProt Q6PNC0 1-3013)
2,binds,Rogdi (from UniProt Q3TDK6 1-287)
3,binds,Wdr7 (from UniProt Q920I9 1-1489)
